{
  "source": "patent US20160243151A1",
  "about": "“CO-RELEASING COMPOUNDS & FORMULATIONS THEREOF USEFUL FOR INDUCING MITOCHONDRIAL BIOGENESIS AND TISSUE REPAIR” (UNIVERSITÄT ZÜRICH, priority 2013, published 2016)",
  "system": "Hepa 1-6 cells",
  "experiment": "MTT reduction assay in Hepa 1-6 cells",
  "assay_type": "cell-based, mouse",
  "details": "control and cytomix-exposed cells, 24 h",
  "procedure": "Mouse hepatoma cells (ATCC, CRL-1830) were grown to near confluence according to the manufacturer's instructions and then exposed to cytomix (a) for 24 hours. At the time of cytomix exposure, cells were treated with B12-CORM2 (25 μM) (b) or the other compounds shown in panel (A). […] (B) shown the relative mRNA levels for the pro-inflammatory enzyme NOS2 (black) and the anti-inflammatory cytokine interleukin 10 (IL10) (white), as measured by real time RT-PCR. Control and cytomix-treated cells were harvested, disrupted, and total RNA extracted. Both gene products increased in response to cytomix, but B12-CORM2 reduced NOS2 and enhanced IL10 expression. […]\nMetabolic capacity assessment: The metabolic state of Hepa 1-6 liver cells was measured using the MTT (3-(4,5-dimethylthiazol-2-yl)-2,5-diphenyltetrazolium bromide, a yellow tetrazole) reduction assay. MTT is reduced to the purple formazan by living cells, which is detected colorimetrically (at 570 nm). […]\nCytomix damages and kills liver cells such as Hepa 1-6 cells. The metabolic state of Hepa 1-6 liver cells were measured using the MTT reduction assay. MTT (3-(4,5-dimethylthiazol-2-yl)-2,5-diphenyltetrazolium bromide, a yellow tetrazole) is reduced to the purple formazan by living cells, which is detected colorimetrically. […]",
  "note": "At least one compound was matched to its structure with a doubt left.",
  "data": [
    {"smiles": "C=CC1=C(C)/C(=C/c2[nH]c(Cc3[nH]c(/C=C4\\NC(=O)C(C)=C4C=C)c(C)c3CCC(=O)O)c(CCC(=O)O)c2C)NC1=O", "note": "[bilirubin]", "values": [
      {"measurement": "MTT reduction (metabolic capacity)", "result": "had no effect on MTT reduction"}
    ]}
  ]
}
